Results from the supplement of paper PMC12067093, “Discovery and optimisation of a covalent ligand for TRIM25 and its application to targeted protein ubiquitination” (Chemical Science, 2025).
The other results are listed elsewhere or left out.

Compound: Cc1cc(ccc1-c1ccccc1)C(=O)N1CCCN(CC1)C(=O)CCl [compound 10]
Experiment: probe-labelled cysteine peptide fold change vs DMSO (competition) (log2 fold change); higher = less target engagement (more negative = stronger competition)
Settings: 10 µM; THP-1; incubation time: 4 h
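Also: competitive profiling in live THP-1 cells: cysteine peptides tagged with an iodoacetamide desthiobiotin (IA-DTB) probe, intensity after compound treatment relative to DMSO-treated cells.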

Row | Target | probe-labelled cysteine peptide fold change
1 | MIB1_Q86YT6_103_CAECTNYDLCTVCYHGDK (UniProt Q86YT6) | 0.0824
2 | MPC2_O95563_54_WGLVCAGLADMARPAEK (UniProt O95563) | -0.141
3 | MNAT1_P51948_46+49_GAGNCPECGTPLR (UniProt P51948) | -0.041
4 | MKI67_P46013_3014_CMPAPEEIVEELPASK (UniProt P46013) | 0.0872
5 | MIOS_Q9NXC5_854_DHAECPVSACTCK (UniProt Q9NXC5) | 0.00522
6 | MLEC_Q14165_206_VCALYIMAGTVDDVPK (UniProt Q14165) | 0.0709
7 | MPV17_P39210_59_TLTMVSLGCGFVGPVVGGWYK (UniProt P39210) | -0.126
8 | MKRN1_Q9UHC7_239_YGENCVYLHGDSCDMCGLQVLHPMDAAQR (UniProt Q9UHC7) | 0.105
9 | MNDA_P41218_61_KFQGVACLDK (UniProt P41218) | 0.0878
10 | MRPL44_Q9H9J2_96_TAFVNSCYIK (UniProt Q9H9J2) | -0.0364
11 | MLH1_P40692_77_LIQIQDNGTGIRKEDLDIVCER (UniProt P40692) | -0.0936
12 | MOV10_Q9HCE1_564_AHILACAPSNSGADLLCQR (UniProt Q9HCE1) | 0.124
13 | MLYCD_O95822_206_VTWHSPCEVLQK (UniProt O95822) | -0.102
14 | MLKL_Q8NB16_437_RQQEPLGEDCPSELREIIDECR (UniProt Q8NB16) | -0.181
15 | MPP1_Q00013_242_VASMAQSAPSEAPSCSPFGKK (UniProt Q00013) | -0.328
16 | MIF_P14174_57_ASVPDGFLSELTQQLAQATGKPPQYIAVHVVPDQLMAFGGSSEPCALCSLHSIGK (UniProt P14174) | 0.0281
17 | MRC2_Q9UBG0_1107_SCTEETHGFICQK (UniProt Q9UBG0) | -0.229
18 | MORF4L1_Q9UBU8_19_VLCFHGPLLYEAK (UniProt Q9UBU8) | 0.421
19 | MRC2_Q9UBG0_201_YDNQWFHGCTSTGR (UniProt Q9UBG0) | -2.14

Row | Target | probe-labelled cysteine peptide fold change
20 | MIF4GD_A9UHW6_150_LAQPDSLSKEEEVDCLVLQLHR (UniProt A9UHW6) | 0.105
21 | MRPL33_O75394_29_MVSEAGTGFCFNTK (UniProt O75394) | -0.0873
22 | MPP2_Q14168_543_GYGHYFDLCLVNSNLER (UniProt Q14168) | 0.0793
23 | MROH1_Q8NDA8_1035_DGLVHPDPAILFHTCHSVGQIIAK (UniProt Q8NDA8) | 0.023
24 | MPHOSPH8_Q99549_99_GYTSDDDTWEPEIHLEDCK (UniProt Q99549) | -0.234
25 | MKRN2_Q9H000_216_ICMLTFEHEMEK (UniProt Q9H000) | 0.0222
26 | MILR1_Q7Z6M3_38_TNEFPSPCLDSK (UniProt Q7Z6M3) | -0.33
27 | MRC2_Q9UBG0_187_IYGSEEDLCALPYHEVYTIQGNSHGKPCTIPFK (UniProt Q9UBG0) | -0.0343
28 | MKRN1_Q9UHC7_69_YFMHGVCK (UniProt Q9UHC7) | 0.144
29 | MRPL3_P09001_127_HVVTLLQVQDCHVLK (UniProt P09001) | -0.0798
30 | MIA3_Q5JRA6_61_GEALEDFTGPDCR (UniProt Q5JRA6) | -0.22
31 | MOB4_Q9Y3A3_92_LQSECHPDTCTQMTATEQWIFLCAAHK (UniProt Q9Y3A3) | 0.0414
32 | MKNK1_Q9BUB5_101_EVETLYQCQGNK (UniProt Q9BUB5) | 0.00543
33 | MITD1_Q8WV92_226+233_FSLGYCDFDLRPCHETTVDIFHK (UniProt Q8WV92) | -0.136
34 | MKI67_P46013_1479_ELFQTPVCTDKPTTHEK (UniProt P46013) | -0.249
35 | MRPL39_Q9NYK5_133_DCDPGEVNK (UniProt Q9NYK5) | -0.21
36 | MRE11_P49959_336_VTQAIQSFCLEK (UniProt P49959) | 0.123
37 | MMAA_Q8IVH4_184_LSVLAVDPSSCTSGGSLLGDK (UniProt Q8IVH4) | -0.0792

Same assay, conditions: 50 µM; THP-1; incubation time: 4 h

Row | Target | probe-labelled cysteine peptide fold change
38 | MIB1_Q86YT6_103_CAECTNYDLCTVCYHGDK (UniProt Q86YT6) | -0.0966
39 | MPC2_O95563_54_WGLVCAGLADMARPAEK (UniProt O95563) | -1.31
40 | MNAT1_P51948_46+49_GAGNCPECGTPLR (UniProt P51948) | -0.123
41 | MKI67_P46013_3014_CMPAPEEIVEELPASK (UniProt P46013) | -0.138
42 | MIOS_Q9NXC5_854_DHAECPVSACTCK (UniProt Q9NXC5) | -0.101
43 | MLEC_Q14165_206_VCALYIMAGTVDDVPK (UniProt Q14165) | 0.132
44 | MPV17_P39210_59_TLTMVSLGCGFVGPVVGGWYK (UniProt P39210) | 0.177
45 | MKRN1_Q9UHC7_239_YGENCVYLHGDSCDMCGLQVLHPMDAAQR (UniProt Q9UHC7) | 0.00822
46 | MNDA_P41218_61_KFQGVACLDK (UniProt P41218) | -0.0793
47 | MRPL44_Q9H9J2_96_TAFVNSCYIK (UniProt Q9H9J2) | -0.21
48 | MLH1_P40692_77_LIQIQDNGTGIRKEDLDIVCER (UniProt P40692) | -0.274
49 | MOV10_Q9HCE1_564_AHILACAPSNSGADLLCQR (UniProt Q9HCE1) | 0.0382
50 | MLYCD_O95822_206_VTWHSPCEVLQK (UniProt O95822) | -0.329
51 | MLKL_Q8NB16_437_RQQEPLGEDCPSELREIIDECR (UniProt Q8NB16) | -0.0528
52 | MPP1_Q00013_242_VASMAQSAPSEAPSCSPFGKK (UniProt Q00013) | -0.951
53 | MIF_P14174_57_ASVPDGFLSELTQQLAQATGKPPQYIAVHVVPDQLMAFGGSSEPCALCSLHSIGK (UniProt P14174) | 0.0556
54 | MRC2_Q9UBG0_1107_SCTEETHGFICQK (UniProt Q9UBG0) | -0.343
55 | MORF4L1_Q9UBU8_19_VLCFHGPLLYEAK (UniProt Q9UBU8) | 0.355
56 | MRC2_Q9UBG0_201_YDNQWFHGCTSTGR (UniProt Q9UBG0) | -2.04

Row | Target | probe-labelled cysteine peptide fold change
57 | MIF4GD_A9UHW6_150_LAQPDSLSKEEEVDCLVLQLHR (UniProt A9UHW6) | -0.279
58 | MRPL33_O75394_29_MVSEAGTGFCFNTK (UniProt O75394) | 0.047
59 | MPP2_Q14168_543_GYGHYFDLCLVNSNLER (UniProt Q14168) | 0.22
60 | MROH1_Q8NDA8_1035_DGLVHPDPAILFHTCHSVGQIIAK (UniProt Q8NDA8) | -0.0212
61 | MPHOSPH8_Q99549_99_GYTSDDDTWEPEIHLEDCK (UniProt Q99549) | 0.297
62 | MKRN2_Q9H000_216_ICMLTFEHEMEK (UniProt Q9H000) | -0.285
63 | MILR1_Q7Z6M3_38_TNEFPSPCLDSK (UniProt Q7Z6M3) | -0.591
64 | MRC2_Q9UBG0_187_IYGSEEDLCALPYHEVYTIQGNSHGKPCTIPFK (UniProt Q9UBG0) | -0.784
65 | MKRN1_Q9UHC7_69_YFMHGVCK (UniProt Q9UHC7) | -0.259
66 | MRPL3_P09001_127_HVVTLLQVQDCHVLK (UniProt P09001) | 0.0433
67 | MIA3_Q5JRA6_61_GEALEDFTGPDCR (UniProt Q5JRA6) | 0.0547
68 | MOB4_Q9Y3A3_92_LQSECHPDTCTQMTATEQWIFLCAAHK (UniProt Q9Y3A3) | 0.244
69 | MKNK1_Q9BUB5_101_EVETLYQCQGNK (UniProt Q9BUB5) | 0.169
70 | MITD1_Q8WV92_226+233_FSLGYCDFDLRPCHETTVDIFHK (UniProt Q8WV92) | -0.305
71 | MKI67_P46013_1479_ELFQTPVCTDKPTTHEK (UniProt P46013) | -0.26
72 | MRPL39_Q9NYK5_133_DCDPGEVNK (UniProt Q9NYK5) | -0.628
73 | MRE11_P49959_336_VTQAIQSFCLEK (UniProt P49959) | 0.0281
74 | MMAA_Q8IVH4_184_LSVLAVDPSSCTSGGSLLGDK (UniProt Q8IVH4) | 0.0935
